Data reported in paper PMC7819943, “Rice protein-binding microarrays: a tool to detect cis-acting elements near promoter regions in rice”.
The list shows a part of the results.

Protein sequences, listed by entry. Tags and fused reporters are not part of them.
UniProt Q0JBA9, entry or part of it: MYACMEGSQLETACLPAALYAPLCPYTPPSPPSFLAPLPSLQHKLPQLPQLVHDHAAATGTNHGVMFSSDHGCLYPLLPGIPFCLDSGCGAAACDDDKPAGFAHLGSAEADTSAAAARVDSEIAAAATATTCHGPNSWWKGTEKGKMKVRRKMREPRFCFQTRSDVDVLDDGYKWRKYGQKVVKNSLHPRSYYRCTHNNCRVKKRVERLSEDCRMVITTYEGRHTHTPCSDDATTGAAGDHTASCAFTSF

What follows are sequences tested against OsWRKY34 (Oryza sativa, UniProt Q0JBA9 1-250) (assay: protein-binding microarray (RPBM); PBS, 2% BSA, 51.3 ng/ul salmon testes DNA, 50 uM zinc acetate, 200 nM TF, 25 C, 1 h; high values mean tight binding). Conditions: protein: recombinant; tags: N-terminal polyhistidine and DsRed monomer fusion (pET32a); label: CyDye5-dUTP incorporated in the synthesized complementary strand; 3' TTTTT single-stranded linker to array surface; dsDNA, one strand shown.
How it was run: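 Transcription factors were made in E. coli BL21-CodonPlus as N-terminal fusions to a polyhistidine tag and DsRed, then purified on Ni–NTA. After primer extension with Cy5-dUTP and blocking with 2% BSA, a custom Agilent array was exposed for 1 h at 25 °C to 200 nM protein in PBS, 2% BSA, salmon testes DNA and 50 µM zinc acetate. Washed arrays were scanned on an Axon 4000B, and the binding signal is per-feature fluorescence intensity in arbitrary units.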

| Sequence | binding signal |
| --- | --- |
| ATATGGCATCTCGGTTTCGTCTTAACAGGGTATTGCACTACGGAGTCACCTAGTGCAG | 9900 fluorescence intensity (a.u.) |
| CACCGTCTGTCCGTCTCGTCGGTGAGCCGCCCGCGACCTCCGGAGTCACCTAGTGCAG | 9910 fluorescence intensity (a.u.) |
| TGTAATTATTCCCTCAGGTATCAATCAATTCAGTTAACTTCGGAGTCACCTAGTGCAG | 8650 fluorescence intensity (a.u.) |
| TCGTCCCGCCATTTCCGCGCGTTGCCTTCTCGCCGCGCGACGGAGTCACCTAGTGCAG | 9530 fluorescence intensity (a.u.) |
| TCCTTATTCAACAATTTGTCTGATACTTGCATGCCCACAGCGGAGTCACCTAGTGCAG | 9820 fluorescence intensity (a.u.) |
| ATTTTTTTCGGTTTGGTTGATTTTATTGAGTTACATTTACCGGAGTCACCTAGTGCAG | 10900 fluorescence intensity (a.u.) |
| GCGTTGTATCCGGTTTGGTTTTGTGGTTCAAGGACGATTTCGGAGTCACCTAGTGCAG | 10500 fluorescence intensity (a.u.) |
| GTCCTTCGCGCGCGCCTCGCCGCGCCATGCCGCGCGCGTCCGGAGTCACCTAGTGCAG | 8920 fluorescence intensity (a.u.) |
| CTCAATTAATTACATATTATTACCACATCTTTTTACGTAACGGAGTCACCTAGTGCAG | 9660 fluorescence intensity (a.u.) |
| GCTCGCCGTCACGCCGCTCCTCTCCCTCGCCGGTGCGCCACGGAGTCACCTAGTGCAG | 8100 fluorescence intensity (a.u.) |
| ATGTGGTTTGGTGAGCGCCGCTGTGCCCACCTAACCCACACGGAGTCACCTAGTGCAG | 27300 fluorescence intensity (a.u.) |
| CATTATTAAAATATATATGTGTTACATTCGGTATTATATTCGGAGTCACCTAGTGCAG | 8650 fluorescence intensity (a.u.) |
| TCTCGTTTCGTCGTCGCCACCATTATAATCTCATCATGACCGGAGTCACCTAGTGCAG | 12600 fluorescence intensity (a.u.) |
| TTACGGTTGCCTGTATTTGTTGTGCATCATGATCATTCAGCGGAGTCACCTAGTGCAG | 11900 fluorescence intensity (a.u.) |
| CCAGCCCATTAGGCAGCCCATCACAGGTCACAGCCCAAAACGGAGTCACCTAGTGCAG | 9570 fluorescence intensity (a.u.) |
| GATTTTTTTCACTTACACAAACCTGGACTGCAGTCCACTACGGAGTCACCTAGTGCAG | 8530 fluorescence intensity (a.u.) |
| TTCGACTTGACTTGACTTAGTTTACGACCTTGTATTTCCCCGGAGTCACCTAGTGCAG | 8400 fluorescence intensity (a.u.) |
| GTCTGAAATGTCTCACACGCTAGCTGCCAAATACATCGGTCGGAGTCACCTAGTGCAG | 9340 fluorescence intensity (a.u.) |
| TTTTATTCAATATATGTATATAGGTATCTTTGGTTGTTTTCGGAGTCACCTAGTGCAG | 8320 fluorescence intensity (a.u.) |
| GGGGATCCCTATTTCTCTGTATATGTCCTTTTGTAGCCTTCGGAGTCACCTAGTGCAG | 10800 fluorescence intensity (a.u.) |
| AACTCTTCAGTAACCCCACCAGCCCACCTTTCCGGTCCAACGGAGTCACCTAGTGCAG | 9510 fluorescence intensity (a.u.) |

| Sequence | binding signal |
| --- | --- |
| GGCTTCAGTTGTCCTTCCAGCTTCACTGGCCTTAACCGGACGGAGTCACCTAGTGCAG | 8940 fluorescence intensity (a.u.) |
| CATATGCTAATTACTCCATCCATTTTATATTATATATCATCGGAGTCACCTAGTGCAG | 9100 fluorescence intensity (a.u.) |
| CGTCGCCTCGCCGTCTGCCGCTGCCACCCAGCGAACGCAACGGAGTCACCTAGTGCAG | 8100 fluorescence intensity (a.u.) |
| CGTTTCTCTCTCTTACCATGTTGTCAGTCGCGTTTCTGCTCGGAGTCACCTAGTGCAG | 11400 fluorescence intensity (a.u.) |
| CTCCACGTTGGTTTTGATTGTGCGCTGGAGGAGAGAGAACCGGAGTCACCTAGTGCAG | 8640 fluorescence intensity (a.u.) |
| CACCTCCCGCCCTCTCTCCGGCCACACAAACCGCGGCTAACGGAGTCACCTAGTGCAG | 8250 fluorescence intensity (a.u.) |
| CTTCTCGTAGCCTCTTCAGATCGATCGCTTCGTCGTCATGCGGAGTCACCTAGTGCAG | 9770 fluorescence intensity (a.u.) |
| GGCTTTGCGTGTTGTCGAGTTCCCACATGCTATCGCCCAACGGAGTCACCTAGTGCAG | 9520 fluorescence intensity (a.u.) |
| CCACTTTTTTACAGTATTCACGAACAAATACACGATCTTCCGGAGTCACCTAGTGCAG | 8980 fluorescence intensity (a.u.) |
| CCCCACCGCCCACCGCCCACCGCCCACCCACCTCCGCACCCGGAGTCACCTAGTGCAG | 11600 fluorescence intensity (a.u.) |
| CAACACGCCACTCGCCTCATGCCTCAGCTCCGCCCTGACACGGAGTCACCTAGTGCAG | 14300 fluorescence intensity (a.u.) |
| ACAGAAAATCATTTAATTTTTCTTCTTTAGTTTCTGCTGTCGGAGTCACCTAGTGCAG | 8940 fluorescence intensity (a.u.) |
| TTCACCATGGCGGACCTCACGCTTCTCGCCCGCTTCTTCACGGAGTCACCTAGTGCAG | 14700 fluorescence intensity (a.u.) |
| ATCCACAAGTTAATATGGTCTTTATGGTTCAACCACTATACGGAGTCACCTAGTGCAG | 8690 fluorescence intensity (a.u.) |
| GATTAGTGTGGTGGCATTCTTTTCTTCCATGATGCTACAGCGGAGTCACCTAGTGCAG | 9620 fluorescence intensity (a.u.) |
| GACCTCGATTCGTCCATCCAGCTTCCACTACCCCTCCGCGCGGAGTCACCTAGTGCAG | 10000 fluorescence intensity (a.u.) |
| GTGTTACCACTTTACTTGTACGGTTGTGTTCAGAAGTGGACGGAGTCACCTAGTGCAG | 9380 fluorescence intensity (a.u.) |
| CCCTCTCTACCGCTTTGCCTATTCAACAGTCAGGCTCACACGGAGTCACCTAGTGCAG | 9110 fluorescence intensity (a.u.) |
| ATCTCCATCTTCACTGAGCATTTTGTCATTAACTACCTCTCGGAGTCACCTAGTGCAG | 9960 fluorescence intensity (a.u.) |
| TCCTCCCGAGTCCAGTCCACTCCGCGACCGCGCCAACATGCGGAGTCACCTAGTGCAG | 8030 fluorescence intensity (a.u.) |
| ATCTCCCTGCCGCAACCCTAGCCTCGCCGCCGCCGCCGCCCGGAGTCACCTAGTGCAG | 9120 fluorescence intensity (a.u.) |

Individual results from the list.
binding signal with CGTCGCCTCGCCGTCTGCCGCTGCCACCCAGCGAACGCAACGGAGTCACCTAGTGCAG is entered as 8100 fluorescence intensity (a.u.)
binding signal with GTGTTACCACTTTACTTGTACGGTTGTGTTCAGAAGTGGACGGAGTCACCTAGTGCAG is entered as 9380 fluorescence intensity (a.u.)
binding signal with CTTCTCGTAGCCTCTTCAGATCGATCGCTTCGTCGTCATGCGGAGTCACCTAGTGCAG is entered as 9770 fluorescence intensity (a.u.)
